Results from the supplement of paper PMC11542785.
Counter-ions that a name gives are not always drawn. This is one part of the list. Repeats are few or missing, and single values can be far off. Bridge positions count the residues as written; N and C are the ends. Square brackets hold non-standard residues; d marks the D form. Peptide text beside a SMILES is read from it. * marks the point of attachment. Ileψ(thiazoline)Cys = CC[C@H](C)[C@H](N)C1=N[C@H](C(=O)*)CS1; dOrn = NCCC[C@@H](N)C(=O)O

Tested on: Drosophila melanogaster DPAGT1 (Alg7) RNAi eye model
Test: eye size Z-score vs DMSO-treated DPAGT1 model flies; higher = larger eye (suppression of DPAGT1 phenotype)
Conditions: 5 uM

Row | Compound | eye size Z-score | eye size Z-score (female)
1 | N#Cc1cc(NC(=O)C(=O)O)c(Cl)c(NC(=O)C(=O)O)c1 [Lodoxamide] | 0.96 | –
2 | COc1ccc(/C=C/C(=O)Nc2ccccc2C(=O)O)cc1OC [Tranilast] | – | -0.94
3 | CCOC(=O)C1=C(COCCN)NC(C)=C(C(=O)OC)C1c1ccccc1Cl (stereo not given) [Amlodipine] | -0.16 | –
4 | Oc1c(Cl)cc(Cl)c(Cl)c1Cc1c(O)c(Cl)cc(Cl)c1Cl [Hexachlorophene] | -0.7 | –
5 | Cc1c(N(C)C)c(=O)n(-c2ccccc2)n1C [Amidopyrine] | 0.37 | –
6 | OC(CNCC(O)C1CCc2cc(F)ccc2O1)C1CCc2cc(F)ccc2O1 (stereo not given) [Nebivolol hydrochloride] | -0.27 | –
7 | CC(=O)NS(=O)(=O)c1ccc(NC(=O)c2ccccc2C(=O)O)cc1 [Phthalylsulfacetamide] | 0.14 | –
8 | CC[C@H](C)[C@H](N)C1=N[C@H](C(=O)N[C@@H](CC(C)C)C(=O)N[C@H](CCC(=O)O)C(=O)N[C@H](C(=O)N[C@H]2CCCCNC(=O)[C@H](CC(N)=O)NC(=O)[C@@H](CC(=O)O)NC(=O)[C@H](Cc3cnc[nH]3)NC(=O)[C@@H](Cc3ccccc3)NC(=O)[C@H]([C@@H](C)CC)NC(=O)[C@@H](CCCN)NC2=O)[C@@H](C)CC)CS1 [Bacitracin] ({Ileψ(thiazoline)Cys}-L[dE]IK[dOrn]I[dF]H[dD]N; lactam 4-C) | -0.69 | –
9 | CN(C)CCN1C(=O)c2ccccc2N(C)c2ccccc21 [Dibenzepine hydrochloride] | -1.06 | –
10 | COc1ccc(OC)c(C(O)CNC(=O)CN)c1 (stereo not given) [Midodrine hydrochloride] | 0.71 | –
11 | CN(C(=O)C(Cl)Cl)c1ccc(OC(=O)c2ccco2)cc1 [Diloxanide furoate] | -0.67 | –
12 | Nc1ccn([C@H]2CC[C@@H](CO)O2)c(=O)n1 [Zalcitabine] | -0.33 | –
13 | CN(C)CCOC(C)(c1ccccc1)c1ccccn1 (stereo not given) [Doxylamine succinate] | 1.14 | –
14 | CC(=O)c1ccc2c(c1)N(CCCN(C)C)c1ccccc1S2 [Acetopromazine maleate salt] | -0.68 | –
15 | C[C@@H](O)[C@H]1C(=O)N2C(C(=O)O)=C(S[C@@H]3CN[C@H](CNS(N)(=O)=O)C3)[C@H](C)[C@H]12 [Doripenem monohydrate] | 0.21 | –
16 | CC(C)(C#N)c1cc(Cn2cncn2)cc(C(C)(C)C#N)c1 [Anastrozole] | -0.91 | –
17 | C(=C\c1ccccc1)/CN1CCN(C(c2ccccc2)c2ccccc2)CC1 [Cinnarizine] | -0.16 | –
18 | O=C(C1CCCCC1)N1CC(=O)N2CCc3ccccc3C2C1 (stereo not given) [Praziquantel] | -0.79 | –
19 | C[C@@H]1CCO[C@H]2Cn3cc(C(=O)NCc4ccc(F)cc4F)c(=O)c(O)c3C(=O)N12 [Dolutegravir] | -0.31 | –
20 | COc1ccc2c(c1)c(CC(=O)O)c(C)n2C(=O)c1ccc(Cl)cc1 [Indomethacin] | -0.49 | –
21 | CN1CCC(=C2c3ccccc3CCc3cccnc32)CC1 [Azatadine maleate] | 0.69 | –
22 | Nc1nc2ccc(OC(F)(F)F)cc2s1 [Riluzole hydrochloride] | – | 0.5
23 | CC(C)(C)NCC(O)COc1cccc2c1CCC(=O)N2 (stereo not given) [Carteolol hydrochloride] | -0.45 | –
24 | C=C1c2c(Cl)ccc(O)c2C(=O)C2=C(O)[C@]3(O)C(=O)C(C(N)=O)=C(O)[C@@H](N(C)C)[C@@H]3[C@@H](O)[C@H]12.O=C(O)c1cc(S(=O)(=O)O)ccc1O [Meclocycline sulfosalicylate] | -0.34 | –

Filtered by structure: those above with a cyano group.
Row | Compound | eye size Z-score | eye size Z-score (female)
1 | N#Cc1cc(NC(=O)C(=O)O)c(Cl)c(NC(=O)C(=O)O)c1 [Lodoxamide] | 0.96 | –
16 | CC(C)(C#N)c1cc(Cn2cncn2)cc(C(C)(C)C#N)c1 [Anastrozole] | -0.91 | –

Remaining list, next part.

Row | Compound | eye size Z-score | eye size Z-score (female)
25 | CC(=O)NCCCS(=O)(=O)O [Acamprosate calcium] | -0.75 | –
26 | CCOC(=O)O[C@]1(C(=O)COC(=O)CC)CC[C@H]2[C@@H]3CCC4=CC(=O)C=C[C@]4(C)[C@H]3[C@@H](O)C[C@@]21C [Prednicarbate] | 0.29 | –
27 | Cc1c(C(=O)NN2CCCCC2)nn(-c2ccc(Cl)cc2Cl)c1-c1ccc(Cl)cc1 [Rimonabant] | 0.18 | –
28 | COc1cc2c(cc1OC)CC(=O)N(CCCN(C)C[C@H]1Cc3cc(OC)c(OC)cc31)CC2 [Ivabradine hydrochloride] | 1.35 | –
29 | C[C@H]1c2cccc(O)c2C(=O)C2=C(O)[C@]3(O)C(=O)C(C(N)=O)=C(O)[C@@H](N(C)C)[C@@H]3[C@@H](O)[C@@H]21 [Doxycycline hydrochloride] | -1.12 | –
30 | Clc1ccc(C(Cn2ccnc2)OCc2ccsc2Cl)c(Cl)c1 (stereo not given) [Tioconazole] | 0.33 | –
31 | CCCC1C(=O)N2C(N(C)C)=Nc3ccc(C)cc3N2C1=O (stereo not given) [Azapropazone] | 0.5 | –
32 | c1cnc(N2CCN(Cc3ccc4c(c3)OCO4)CC2)nc1 [Piribedil] | 1.14 | –
33 | CCOC(=O)O[C@]1(C(=O)OCCl)CC[C@H]2[C@@H]3CCC4=CC(=O)C=C[C@]4(C)[C@H]3[C@@H](O)C[C@@]21C [Loteprednol etabonate] | 0.12 | –
34 | Cc1ccc(NC(=O)c2ccc(CN3CCN(C)CC3)cc2)cc1Nc1nccc(-c2cccnc2)n1 [Imatinib] | -0.58 | –
35 | O=C(O)c1cn(C2CC2)c2cc(N3CCNCC3)c(F)cc2c1=O [Ciprofloxacin hydrochloride monohydrate] | 0.49 | –
36 | CCOc1nc2cccc(C(=O)OCc3oc(=O)oc3C)c2n1Cc1ccc(-c2ccccc2-c2noc(=O)[nH]2)cc1 [Azilsartan medoxomil] | 0.1 | –
37 | C#CCN[C@@H]1CCc2ccccc21 [Rasagiline] | -0.21 | –
38 | COc1ccc(-c2cc(=S)ss2)cc1 [Anethole-trithione] | 0.1 | –
39 | CCCN1CCCC[C@H]1C(=O)Nc1c(C)cccc1C [Ropivacaine hydrochloride] | 0.67 | –
40 | COc1cc(C(=O)NCc2ccc(OCCN(C)C)cc2)cc(OC)c1OC [Trimethobenzamide hydrochloride] | -0.19 | –
41 | CN1CC(=O)N2[C@H](c3ccc4c(c3)OCO4)c3[nH]c4ccccc4c3C[C@@H]2C1=O [Tadalafil] | -0.12 | –
42 | C1CCC(C(CC2CCCCN2)C2CCCCC2)CC1 (stereo not given) [Perhexiline maleate] | 0 | –
43 | CC(C)NCC(O)COc1ccc(CCOCC2CC2)cc1 (stereo not given) [Betaxolol hydrochloride] | -0.13 | –
44 | CCc1nc(N)nc(N)c1-c1ccc(Cl)cc1 [Pyrimethamine] | 0.48 | –
45 | CC(=O)[C@@]1(O)CC[C@H]2[C@@H]3C[C@H](C)C4=CC(=O)C=C[C@]4(C)[C@@]3(F)[C@@H](O)C[C@@]21C [Fluorometholone] | -0.57 | –
46 | CCN(CC)CCNC(=O)c1cc(Cl)c(N)cc1OC [Metoclopramide monohydrochloride] | -0.15 | –
47 | CC(C)=C/C(C)=N/Nc1nncc2ccccc12 [Budralazine] | 0.88 | –
48 | CCOc1ccc2ccccc2c1C(=O)N[C@@H]1C(=O)N2[C@@H]1SC(C)(C)[C@@H]2C(=O)O [Nafcillin sodium salt monohydrate] | -0.36 | –

Row | Compound | eye size Z-score | eye size Z-score (female)
49 | CN(C)C/C=C(/c1ccc(Br)cc1)c1cccnc1 [Zimelidine dihydrochloride monohydrate] | -1.32 | –
50 | Cn1cnc2c1c(=O)[nH]c(=O)n2C [Theobromine] | 0.45 | –
51 | CC1=NN(c2ccccc2)C(=O)C1 [Edaravone] | 0.38 | –
52 | CCC[C@@H]1C[C@@H](C(=O)N[C@@H]([C@H]2O[C@H](SC)[C@H](O)[C@@H](O)[C@H]2O)[C@H](C)Cl)N(C)C1 [Clindamycin hydrochloride] | 0.27 | –
53 | O=C(N[C@H](CO)[C@H](O)c1ccc([N+](=O)[O-])cc1)C(Cl)Cl [Chloramphenicol] | – | 0.26
54 | O=C(O)CCNC(=O)c1ccccc1 [Betamipron] | 0.68 | –
55 | Cc1ccc2c(c1)c1c3n2CCNC3CCC1 (stereo not given) [Pirlindole mesylate] | 1.5 | –
56 | CN(C)CCC=C1c2ccccc2COc2ccccc21 [Doxepin hydrochloride] | -0.41 | –
57 | CN1CCC[C@@H]1Cc1c[nH]c2ccc(CCS(=O)(=O)c3ccccc3)cc12 [Eletriptan] | 1.28 | –
58 | CC(C)[N+](C)(CCOC(=O)C1c2ccccc2Oc2ccccc21)C(C)C [Propantheline bromide] | 0.3 | –
59 | CC(C)Cc1ccc(CC(=O)O)cc1 [Ibufenac] | -0.26 | –
60 | COc1ccccc1Oc1c(NS(=O)(=O)c2ccc(C(C)(C)C)cc2)nc(-c2ncccn2)nc1OCCO [Bosentan] | -0.89 | –
61 | Nc1ccccc1S(N)(=O)=O [o-Sulfanilamide] | -0.15 | –
62 | CN1CCN(C2Cc3ccccc3Sc3ccc(Cl)cc32)CC1 (stereo not given) [Octoclothepin maleate salt] | 0.44 | –
63 | NS(=O)(=O)c1cc2c(cc1Cl)NC(C(Cl)Cl)NS2(=O)=O (stereo not given) [Trichlormethiazide] | -0.36 | –
64 | CN[C@@H]1[C@H](O)[C@H](NC)[C@H]2O[C@@]3(O)C(=O)C[C@@H](C)O[C@H]3O[C@@H]2[C@H]1O [Spectinomycin dihydrochloride] | -0.96 | –
65 | Cc1onc(-c2ccccc2Cl)c1C(=O)N[C@@H]1C(=O)N2[C@@H]1SC(C)(C)[C@@H]2C(=O)O [Cloxacillin sodium salt] | -0.1 | –
66 | N[C@@H](C(=O)N[C@@H]1C(=O)N2C(C(=O)O)=C(Cl)CC[C@H]12)c1ccccc1 [Loracarbef] | 0.04 | –
67 | C#Cc1cccc(Nc2ncnc3cc(OCCOC)c(OCCOC)cc23)c1 [Erlotinib] | 0.01 | –
68 | CC(C)Nc1cccnc1N1CCN(C(=O)c2cc3cc(NS(C)(=O)=O)ccc3[nH]2)CC1 [Delavirdine] | 0.32 | –
69 | CN[C@@H]1[C@@H](O[C@H]2O[C@H](CO)[C@@H](N)[C@H](O)[C@H]2O)OC2C[C@@H](N)[C@@H](O[C@H]3[C@H](O)[C@@H](O)[C@H](N)C[C@@H]3N)OC2[C@@H]1O (stereo not given in full) [Apramycin] | 0.5 | –
70 | Cc1c(-c2ccccc2)oc2c(C(=O)OCCN3CCCCC3)cccc2c1=O [Flavoxate hydrochloride] | -0.21 | –
